Positions count from the first letter of the chain named. These are yes or no findings as the source states them, for the method shown. Some binding calls cover weakened binding; strength is not graded here.
B1: Ab08 (antibody, V domains shown)
VH: QVQLQQPGAELVKPGASVKLSCKASGYTFTSYLLHWVKQRPGQGLEWIGMIHPNGGSTNYNEKFKTKATLTVDKSSSTAYMQLSSLTSEDSAVYYCAPVYFGNSFAYWGQGTLVTVSA
VL: DIVMTQSPSSLTVTAGEKVTMSCKSSQSLLNSGNQKNYLTWYQQKPGQPPKLLIYWASTRESGVPDRFTGSGSGTDFTLTISSVQAEDLAVYYCQNDYYYPFTFGSGTKLEKK
B2: Ab14 (antibody, V domains shown)
VH: B1 VH
VL: B1 VL
B3: Ab28 (antibody, V domains shown)
VH: QVQLKESGPGLVAPSQSLSITCTVSGFSLTSHGVHWVRQPPGKGLEWLGVIWAGGSINFNSALMSRLSISKDNSKNQVFLKMNSLQSDDTAMYYCARDYYYGIGLDYWGQGTTLTVS
VL: B1 VL with T12S, T14S, T40A, W56G, K112I
B4: Ab32 (antibody, V domains shown)
VH: B3 VH
VL: B1 VL with T12S, T14S, T40A, W56G, K112I

By UniProt entry, the sequences of proteins in these tests, tags left out. Where a name states a change or a piece, a line headed by the entry shows the natural chain unless it says otherwise.
UniProt P56856: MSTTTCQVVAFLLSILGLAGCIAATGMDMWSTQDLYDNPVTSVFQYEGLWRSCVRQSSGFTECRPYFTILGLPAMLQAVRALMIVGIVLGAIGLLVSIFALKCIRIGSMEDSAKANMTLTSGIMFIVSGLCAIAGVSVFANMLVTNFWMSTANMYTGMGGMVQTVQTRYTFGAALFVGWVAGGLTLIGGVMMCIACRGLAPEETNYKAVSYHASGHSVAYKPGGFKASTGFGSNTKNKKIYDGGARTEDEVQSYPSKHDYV

Molecular target: human Claudin18.2 (CLDN18.2) (human) (UniProt P56856)
Assay: FACS on CHOK1-18.2 cells

| Binder | binding |
| --- | --- |
| B1 | binds |
| B2 | binds |
| B3 | binds |
| B4 | binds |
